According to US20160362464A1:
These are yes or no findings as the source states them, for the method shown. For some assays here: In cells and extracts the contact can be indirect. Some binding calls cover weakened binding; strength is not graded here. For some assays here: Sequences can lack the tags named with a protein. Each block holds one substance with its values, some of them ahead of it.

Chains of the proteins cited; added tags and fusions are not shown.
UniProt P08753: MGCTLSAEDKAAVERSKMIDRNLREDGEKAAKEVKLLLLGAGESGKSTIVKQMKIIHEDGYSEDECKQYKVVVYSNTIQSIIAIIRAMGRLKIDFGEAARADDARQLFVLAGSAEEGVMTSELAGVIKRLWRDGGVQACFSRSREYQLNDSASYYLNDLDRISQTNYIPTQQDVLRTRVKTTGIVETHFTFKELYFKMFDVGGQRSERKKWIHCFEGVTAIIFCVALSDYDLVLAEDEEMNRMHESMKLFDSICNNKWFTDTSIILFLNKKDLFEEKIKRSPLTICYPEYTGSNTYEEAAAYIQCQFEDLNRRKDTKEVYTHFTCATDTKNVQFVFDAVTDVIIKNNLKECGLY

Assays:
GST-GIV (aa 1671-1755) = target: T1, GST-GIV (aa 1671-1755) (UniProt Q3V6T2); test: GST pulldown with 0.01-3 µM His-Gαi3, quantified immunoblot (FIG. 1F)
T1 sequence (looked up): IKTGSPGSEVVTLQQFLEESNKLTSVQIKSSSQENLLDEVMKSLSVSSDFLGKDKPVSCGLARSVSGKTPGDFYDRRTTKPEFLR

GST-DAPLE-CT (human) = target: T2, GST-DAPLE-CT (human) (UniProt Q9P219); test: as above
T2 sequence: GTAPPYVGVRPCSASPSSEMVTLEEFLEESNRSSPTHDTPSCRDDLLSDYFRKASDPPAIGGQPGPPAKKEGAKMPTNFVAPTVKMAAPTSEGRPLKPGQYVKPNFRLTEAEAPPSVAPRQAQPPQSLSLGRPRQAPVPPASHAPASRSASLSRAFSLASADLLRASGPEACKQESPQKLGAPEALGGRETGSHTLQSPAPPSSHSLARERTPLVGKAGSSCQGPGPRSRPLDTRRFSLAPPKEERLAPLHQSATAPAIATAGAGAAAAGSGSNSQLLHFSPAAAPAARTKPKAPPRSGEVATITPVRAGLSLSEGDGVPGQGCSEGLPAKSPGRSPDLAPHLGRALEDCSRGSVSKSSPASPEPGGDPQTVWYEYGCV

Gαi3-FLAG (rat) [1] = target: Gαi3-FLAG (rat) (UniProt P08753); test: co-immunoprecipitation (FIG. 1C)
Gαi3-FLAG (rat) [2] = target: Gαi3-FLAG (rat) (UniProt P08753); test: co-immunoprecipitation with anti-FLAG mAb from HEK293 lysates expressing Gαi3-FLAG, immunoblot (FIG. 1C)
Gαi3-FLAG (rat) [3] = target: Gαi3-FLAG (rat) (UniProt P08753); test: co-immunoprecipitation with anti-FLAG mAb from Cos7 cells (FIG. 2E); the WT binds
[4] = target: GST-Gαi3 preloaded with GDP (inactive) (rat) (UniProt P08753); test: GST pulldown from Cos7 lysates, immunoblot (FIG. 1E)
Gαi3-FLAG (rat) [5] = target: Gαi3-FLAG (rat) (UniProt P08753); test: co-immunoprecipitation (FIG. 2E); the WT binds
[6] = target: GST-Gαi3 preloaded with GDP (inactive) (rat) (UniProt P08753); test: GST pulldown from cell lysates (FIG. 1E)

binding (GST-GIV (aa 1671-1755)): binds
binding (GST-DAPLE-CT (human)): binds
Substance: His-Gαi3 (GDP-loaded) (from UniProt P08753 1-354)

binding (Gαi3-FLAG (rat) [1]): binds
binding (Gαi3-FLAG (rat) [2]): binds
Substance: endogenous full-length DAPLE (HEK293 cells) (from UniProt Q9P219 1-2028)

binding (Gαi3-FLAG (rat) [3]): binds
binding [4]: binds
binding (Gαi3-FLAG (rat) [5]): binds
binding [6]: binds
Substance: myc-DAPLE full length WT (from UniProt Q9P219 1-2028)
